Test results from paper PMC529442.
Results are given in words; binding and its absence hold for the method and conditions named. Some binding calls cover weakened binding; strength is not graded here.

Protein sequences, listed by entry. Tags and fused reporters are not part of them.
UniProt Q24572: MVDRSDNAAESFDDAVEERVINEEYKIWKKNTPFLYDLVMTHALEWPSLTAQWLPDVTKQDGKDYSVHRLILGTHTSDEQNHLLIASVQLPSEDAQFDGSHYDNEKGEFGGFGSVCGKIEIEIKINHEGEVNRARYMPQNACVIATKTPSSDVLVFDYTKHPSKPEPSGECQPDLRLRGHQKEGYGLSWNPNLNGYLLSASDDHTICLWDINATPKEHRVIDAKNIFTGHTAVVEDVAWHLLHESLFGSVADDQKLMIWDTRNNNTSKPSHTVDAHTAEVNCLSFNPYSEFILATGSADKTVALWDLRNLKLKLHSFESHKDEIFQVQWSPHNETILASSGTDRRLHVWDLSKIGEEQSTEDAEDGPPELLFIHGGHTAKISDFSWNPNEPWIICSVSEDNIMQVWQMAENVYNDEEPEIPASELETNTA
UniProt Q94517: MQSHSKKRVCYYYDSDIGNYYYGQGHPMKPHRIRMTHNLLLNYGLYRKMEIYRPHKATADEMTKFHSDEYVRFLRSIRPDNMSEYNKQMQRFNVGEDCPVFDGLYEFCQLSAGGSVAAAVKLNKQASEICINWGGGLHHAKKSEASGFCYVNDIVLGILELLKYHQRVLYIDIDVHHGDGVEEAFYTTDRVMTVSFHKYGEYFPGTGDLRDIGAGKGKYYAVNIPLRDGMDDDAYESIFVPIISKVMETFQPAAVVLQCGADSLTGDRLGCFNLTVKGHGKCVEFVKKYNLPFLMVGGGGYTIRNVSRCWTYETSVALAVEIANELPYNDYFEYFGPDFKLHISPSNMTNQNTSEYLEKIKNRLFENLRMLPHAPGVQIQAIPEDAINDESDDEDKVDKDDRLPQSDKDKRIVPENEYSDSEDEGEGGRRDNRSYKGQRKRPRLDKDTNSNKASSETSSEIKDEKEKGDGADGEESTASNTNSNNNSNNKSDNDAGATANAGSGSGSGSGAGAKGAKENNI
UniProt O97159: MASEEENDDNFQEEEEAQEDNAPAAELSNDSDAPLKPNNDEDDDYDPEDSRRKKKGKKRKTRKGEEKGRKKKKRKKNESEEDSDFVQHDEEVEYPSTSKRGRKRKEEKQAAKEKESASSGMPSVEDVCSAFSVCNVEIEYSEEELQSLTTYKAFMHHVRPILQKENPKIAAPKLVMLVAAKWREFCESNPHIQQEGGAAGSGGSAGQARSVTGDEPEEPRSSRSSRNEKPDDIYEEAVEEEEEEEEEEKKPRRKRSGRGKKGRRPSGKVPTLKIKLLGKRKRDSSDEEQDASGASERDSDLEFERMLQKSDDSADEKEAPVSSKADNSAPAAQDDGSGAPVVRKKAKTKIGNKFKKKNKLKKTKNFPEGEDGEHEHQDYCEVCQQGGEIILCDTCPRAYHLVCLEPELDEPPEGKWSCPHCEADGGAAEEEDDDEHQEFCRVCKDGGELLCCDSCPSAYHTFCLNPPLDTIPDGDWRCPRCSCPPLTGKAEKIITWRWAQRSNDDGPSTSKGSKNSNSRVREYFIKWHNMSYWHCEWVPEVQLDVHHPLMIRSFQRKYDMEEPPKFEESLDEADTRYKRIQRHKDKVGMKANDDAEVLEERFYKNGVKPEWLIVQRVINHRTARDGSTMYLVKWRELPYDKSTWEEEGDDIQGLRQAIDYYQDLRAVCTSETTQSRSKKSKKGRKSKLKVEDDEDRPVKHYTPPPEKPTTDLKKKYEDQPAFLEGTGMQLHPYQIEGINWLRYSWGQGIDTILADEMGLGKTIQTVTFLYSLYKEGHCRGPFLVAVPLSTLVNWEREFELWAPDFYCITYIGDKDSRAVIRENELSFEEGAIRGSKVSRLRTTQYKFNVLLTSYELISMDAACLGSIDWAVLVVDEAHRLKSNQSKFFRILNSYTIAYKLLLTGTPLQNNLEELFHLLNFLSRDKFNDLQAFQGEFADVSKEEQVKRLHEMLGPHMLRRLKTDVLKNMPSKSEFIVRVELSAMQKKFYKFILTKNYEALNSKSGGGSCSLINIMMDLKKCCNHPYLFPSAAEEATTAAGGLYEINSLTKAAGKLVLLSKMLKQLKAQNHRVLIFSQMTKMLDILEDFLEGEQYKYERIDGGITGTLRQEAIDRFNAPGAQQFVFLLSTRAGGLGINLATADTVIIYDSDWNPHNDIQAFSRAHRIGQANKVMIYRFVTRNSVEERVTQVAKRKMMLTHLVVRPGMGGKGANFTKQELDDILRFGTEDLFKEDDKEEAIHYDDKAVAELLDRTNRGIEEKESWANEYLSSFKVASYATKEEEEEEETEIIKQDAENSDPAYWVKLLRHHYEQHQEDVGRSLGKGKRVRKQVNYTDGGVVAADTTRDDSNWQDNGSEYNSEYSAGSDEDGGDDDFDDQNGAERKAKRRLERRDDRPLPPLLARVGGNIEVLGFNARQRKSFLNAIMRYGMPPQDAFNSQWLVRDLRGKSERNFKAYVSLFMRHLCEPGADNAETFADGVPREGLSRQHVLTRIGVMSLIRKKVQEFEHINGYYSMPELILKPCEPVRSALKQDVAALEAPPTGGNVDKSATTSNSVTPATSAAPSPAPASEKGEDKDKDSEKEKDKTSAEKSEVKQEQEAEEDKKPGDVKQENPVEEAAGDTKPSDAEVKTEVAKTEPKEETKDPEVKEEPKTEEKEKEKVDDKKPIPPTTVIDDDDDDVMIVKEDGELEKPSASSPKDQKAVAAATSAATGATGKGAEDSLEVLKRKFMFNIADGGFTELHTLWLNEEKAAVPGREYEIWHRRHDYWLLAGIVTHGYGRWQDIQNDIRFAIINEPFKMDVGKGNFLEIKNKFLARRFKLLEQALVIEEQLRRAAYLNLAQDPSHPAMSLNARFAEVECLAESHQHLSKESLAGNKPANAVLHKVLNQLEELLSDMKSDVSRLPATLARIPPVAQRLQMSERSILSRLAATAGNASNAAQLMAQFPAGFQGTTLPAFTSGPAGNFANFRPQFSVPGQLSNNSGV

How the values were obtained:
[1] = molecular target: p55 (yeast two-hybrid fusion) (Drosophila) (UniProt Q24572); test: two-hybrid; Matchmaker Two-Hybrid system 3, strain AH109; growth on high-stringency plates (SD/-Ade/-His/-Leu/-Trp), confirmed by X-Gal staining of filter-lifted colonies
[2] = molecular target: RPD3 (yeast two-hybrid fusion) (Drosophila) (UniProt Q94517); test: as above
[3] = molecular target: MI-2 (yeast two-hybrid fusion) (Drosophila) (UniProt O97159); test: as above
[4] = molecular target: T1, MTA-like (endogenous, embryonic nuclear extract) (Drosophila (endogenous in embryos)) (UniProt Q9VNF6); test: SEC; Superose 6 HR 10/30 gel filtration of nuclear extracts from 2-4 h and 0-12 h wild type embryos; 20 mM Hepes pH 7.6, 300 mM KCl; fractions analysed by Western blotting (cofractionation)
T1 sequence: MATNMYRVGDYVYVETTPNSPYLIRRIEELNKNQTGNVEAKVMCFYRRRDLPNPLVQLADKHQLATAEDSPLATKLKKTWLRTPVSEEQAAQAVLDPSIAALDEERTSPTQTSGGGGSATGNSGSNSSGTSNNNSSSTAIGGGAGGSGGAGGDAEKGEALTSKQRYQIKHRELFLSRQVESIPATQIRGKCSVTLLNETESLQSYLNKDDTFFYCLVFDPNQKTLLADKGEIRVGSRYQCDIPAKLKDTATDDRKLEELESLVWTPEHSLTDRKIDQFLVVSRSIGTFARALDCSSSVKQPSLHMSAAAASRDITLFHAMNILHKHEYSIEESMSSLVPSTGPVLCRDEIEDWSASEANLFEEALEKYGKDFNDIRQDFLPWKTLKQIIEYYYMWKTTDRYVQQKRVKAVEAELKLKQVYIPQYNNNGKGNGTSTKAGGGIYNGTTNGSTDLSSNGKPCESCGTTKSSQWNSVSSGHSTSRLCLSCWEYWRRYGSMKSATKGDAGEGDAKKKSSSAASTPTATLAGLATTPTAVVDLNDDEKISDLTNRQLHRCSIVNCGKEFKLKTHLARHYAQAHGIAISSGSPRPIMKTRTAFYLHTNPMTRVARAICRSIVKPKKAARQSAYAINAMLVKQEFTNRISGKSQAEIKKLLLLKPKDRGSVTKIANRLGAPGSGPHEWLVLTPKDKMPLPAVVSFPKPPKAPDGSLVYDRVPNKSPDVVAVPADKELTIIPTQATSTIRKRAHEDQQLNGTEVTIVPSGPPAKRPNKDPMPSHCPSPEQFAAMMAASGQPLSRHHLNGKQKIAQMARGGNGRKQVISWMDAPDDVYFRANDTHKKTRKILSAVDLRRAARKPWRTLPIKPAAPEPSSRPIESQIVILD

RPD3 (yeast two-hybrid fusion) (from UniProt Q94517 1-521)
binding [1]: binds | binding [2]: no binding

p55 (yeast two-hybrid fusion) (from UniProt Q24572 1-430)
binding [1]: binds | binding [3]: binds

MI-2 (endogenous, embryonic nuclear extract) (from UniProt O97159 1-1982)
binding [4]: binds
